For one compound, LD50 results are on record in US4443448A, “Indane derivatives, pharmaceutical compositions thereof and method of preparation” (priority 1980, dated 1984).

As a reminder, the LD50 is the dose expected to kill half of the subjects tested. A low value points to greater toxicity.

A short description of this data set: in vivo. The settings on record: iv.

As for `CN1CC[C@]23c4c5ccc(O)c4O[C@H]2[C@@H](O)C=C[C@H]3[C@H]1C5` [morfine, reference compound], the LD50 was above 320 mg/kg.
